# Source: paper PMC5996148
# Values joined by “and” are separate entries in the source; they are usually repeats but may differ in a detail not shown here. Equal entries are not always repeated. The list shows a part of the results. For some assays here: The exact form of the protein is not confirmed.
# Tests used:
# Experiment in all cases: protein microarray (ProtoArray v5.0), streptavidin-Alexa Fluor 647
# Settings in all cases: 3'-biotin; 20 mM Tris (pH 7.5), 5 mM MgCl2, 100 mM KCl, 0.1% Tween-20, A/T-rich and random oligonucleotide blockers; temperature not stated; high values mean tight binding
# [1] = system: MAP kinase-activated protein kinase 3 (human)
# MAP3K7IP1 (human) = system: MAP3K7IP1 (human)
# MAP3K8 (human) = system: MAP3K8 (human)
# MAP4 (human) = system: MAP4 (human)
# MAPK11 (human) = system: MAPK11 (human)
# MAPK6 (human) = system: MAPK6 (human)
# MAPK7 (human) = system: MAPK7 (human)
# MAPK8IP2 (human) = system: MAPK8IP2 (human)
# MAPK9 (human) = system: MAPK9 (human)
# MAPKAPK5 = molecular target: T1, MAPKAPK5 (UniProt Q8IW41)
# T1 sequence: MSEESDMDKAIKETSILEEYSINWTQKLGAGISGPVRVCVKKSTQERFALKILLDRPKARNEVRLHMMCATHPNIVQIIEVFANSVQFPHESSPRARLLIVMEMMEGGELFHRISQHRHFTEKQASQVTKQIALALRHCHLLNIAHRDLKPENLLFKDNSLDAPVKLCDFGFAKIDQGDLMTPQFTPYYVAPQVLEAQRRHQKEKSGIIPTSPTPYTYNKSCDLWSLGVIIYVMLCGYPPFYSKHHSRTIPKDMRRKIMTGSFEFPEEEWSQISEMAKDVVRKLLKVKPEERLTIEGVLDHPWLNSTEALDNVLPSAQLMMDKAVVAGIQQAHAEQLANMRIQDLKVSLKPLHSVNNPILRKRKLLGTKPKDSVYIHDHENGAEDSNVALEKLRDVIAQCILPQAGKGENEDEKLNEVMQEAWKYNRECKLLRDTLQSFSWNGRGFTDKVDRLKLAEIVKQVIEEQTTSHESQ
# MAPRE2 (human) = system: MAPRE2 (human)
# MARVELD2 (human) = system: MARVELD2 (human)
# MASP2 (human) = system: MASP2 (human)
# MAT1A (human) = system: MAT1A (human)
# MAT2B (human) = system: MAT2B (human)
# MCEE (human) = system: MCEE (human)
# MCFD2 (human) = system: MCFD2 (human)
# MCM2 (human) = system: MCM2 (human)
# MCM6 (human) = system: MCM6 (human)
# MCM7 (human) = system: MCM7 (human)
sequence,measurement,setting,value
GGGAGGCTGAGGCAGG [G4-1 biotinylated (PQS2)],binding signal,[1],6.6 z-score
same,binding signal,MAP3K7IP1 (human),-0.32 z-score
same,binding signal,MAP3K8 (human),-0.325 z-score
same,binding signal,MAP4 (human),-0.339 z-score
same,binding signal,MAPK11 (human),-0.302 z-score
same,binding signal,MAPK6 (human),-0.347 z-score
same,binding signal,MAPK7 (human),-0.256 z-score
same,binding signal,MAPK8IP2 (human),-0.34 z-score
same,binding signal,MAPK9 (human),-0.347 z-score and -0.297 z-score
same,binding signal,MAPKAPK5,6.58 z-score
same,binding signal,MAPRE2 (human),-0.326 z-score
same,binding signal,MARVELD2 (human),-0.338 z-score
same,binding signal,MASP2 (human),-0.316 z-score
same,binding signal,MAT1A (human),-0.331 z-score
same,binding signal,MAT2B (human),-0.337 z-score
same,binding signal,MCEE (human),-0.316 z-score
same,binding signal,MCFD2 (human),-0.348 z-score
same,binding signal,MCM2 (human),-0.359 z-score and -0.354 z-score
same,binding signal,MCM6 (human),-0.316 z-score
same,binding signal,MCM7 (human),-0.324 z-score and -0.295 z-score and -0.317 z-score

# Shown with tabs: part of the list above.
sequence	measurement	setting	value
GGGAGGCTGAGGCAGG [G4-1 biotinylated (PQS2)]	binding signal	MAPK9 (human)	-0.347 z-score and -0.297 z-score
same	binding signal	MCM7 (human)	-0.324 z-score and -0.295 z-score and -0.317 z-score
